These are yes or no findings as the source states them, for the method shown. Binding calls can cover weak binding; strength is not graded here.
Key:
Assay in all cases: two-hybrid; yeast Prp31 (wild type and mutants) against Rsa1, Pih1, Rvb1, Rvb2, Hit1; CG1945 mated with Y187, diploids on -Leu-Trp-His plates containing 1.5 mM 3AT; wild-type strains
[1] = target: yeast Prp31 insertion mutant a.a. 118 (yeast) (UniProt P49704)
[2] = target: yeast Prp31 insertion mutant a.a. 123 (yeast) (UniProt P49704)
[3] = target: yeast Prp31 insertion mutant a.a. 227 (yeast) (UniProt P49704)
[4] = target: yeast Prp31 insertion mutant a.a. 92 (yeast) (UniProt P49704)

Chains of the proteins cited; added tags and fusions are not shown. Lines headed by an entry give the natural chain unless they say otherwise; changes in a name come on top.
UniProt P49704: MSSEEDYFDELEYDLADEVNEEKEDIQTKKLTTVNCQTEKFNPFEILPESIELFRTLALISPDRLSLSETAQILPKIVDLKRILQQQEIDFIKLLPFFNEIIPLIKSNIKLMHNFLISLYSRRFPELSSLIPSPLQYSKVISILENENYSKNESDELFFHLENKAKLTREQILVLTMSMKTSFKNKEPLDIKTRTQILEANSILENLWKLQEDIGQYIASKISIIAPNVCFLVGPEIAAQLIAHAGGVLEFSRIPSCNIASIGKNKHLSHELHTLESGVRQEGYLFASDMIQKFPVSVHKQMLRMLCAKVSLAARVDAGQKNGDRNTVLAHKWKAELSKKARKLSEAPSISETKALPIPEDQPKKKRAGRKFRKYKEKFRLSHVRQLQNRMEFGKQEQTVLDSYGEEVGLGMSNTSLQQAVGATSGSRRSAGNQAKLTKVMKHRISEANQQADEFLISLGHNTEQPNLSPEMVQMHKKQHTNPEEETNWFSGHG
UniProt Q03940: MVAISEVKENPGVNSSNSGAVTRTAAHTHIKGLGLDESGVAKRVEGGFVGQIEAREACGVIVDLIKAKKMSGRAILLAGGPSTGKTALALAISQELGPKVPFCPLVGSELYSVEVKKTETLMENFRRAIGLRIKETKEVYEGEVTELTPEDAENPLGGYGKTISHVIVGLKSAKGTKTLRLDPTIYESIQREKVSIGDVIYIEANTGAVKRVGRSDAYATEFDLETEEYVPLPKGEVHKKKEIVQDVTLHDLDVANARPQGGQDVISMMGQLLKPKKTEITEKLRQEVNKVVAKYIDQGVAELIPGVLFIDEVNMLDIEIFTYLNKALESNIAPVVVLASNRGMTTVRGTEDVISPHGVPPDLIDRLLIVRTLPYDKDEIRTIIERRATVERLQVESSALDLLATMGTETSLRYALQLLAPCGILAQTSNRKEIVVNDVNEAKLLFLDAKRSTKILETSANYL
UniProt Q12464: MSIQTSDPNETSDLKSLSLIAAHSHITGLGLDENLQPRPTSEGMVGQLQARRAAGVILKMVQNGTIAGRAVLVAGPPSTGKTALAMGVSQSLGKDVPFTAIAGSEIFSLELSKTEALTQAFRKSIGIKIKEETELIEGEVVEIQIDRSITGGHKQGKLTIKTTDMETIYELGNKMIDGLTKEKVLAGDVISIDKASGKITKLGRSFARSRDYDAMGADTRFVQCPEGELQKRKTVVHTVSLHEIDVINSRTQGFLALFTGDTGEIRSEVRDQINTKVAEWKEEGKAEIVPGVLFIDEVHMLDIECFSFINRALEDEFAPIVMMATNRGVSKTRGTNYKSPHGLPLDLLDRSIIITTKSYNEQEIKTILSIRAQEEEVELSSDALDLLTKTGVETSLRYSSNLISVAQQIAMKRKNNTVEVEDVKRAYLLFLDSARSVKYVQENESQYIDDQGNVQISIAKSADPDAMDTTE

Molecule	binding [1]	binding [2]	binding [3]	binding [4]
Rvb1 (yeast homolog of RuvBL1) (from UniProt Q03940 1-463)	binds	binds	binds	no binding
Rvb2 (yeast homolog of RuvBL2) (from UniProt Q12464 1-471)	binds	binds	binds	no binding
Hit1 (yeast homolog of ZNHIT3) (protein, UniProt P46973 1-164) MVSSAVKCGICRGVDGKYKCPKCGVRYCSLKCYKDAAKHVHKESEQPRAGTEANVEVVNNDKIINSSLAMNKTLKTKAFDDIYQNSAELQELLKYNTVKFHLAKVYRILSSTVNDGSSGKMNSDLQKELAVNYLNTLRYGGIHYNEAIEEFCQILLDKLNAVKK	no binding	no binding	no binding	binds
Rsa1 (yeast homolog of NUFIP) (protein, UniProt Q08932 1-381) MNYNNFENSKGDGHSRLPKPTYSGTLSDGYDESKIKRQKTDSAFNAAYSPHMYPNSPYYEGSWNTGYTPQLHHVAPHNQYFHPIQPSTQYNYTSPPNYTENYIPPVHQNISYAPALNLQKWPSSYCENTQALKNDKDYQTSISYEDVAIPTVKEIQLIEKNRGKDTFMNEISPVPSSKDQASAEPTEIPRKDPELANSNAEDDHNNLGLEDDDRDEQLESEGLGKVVLVPGTSIALITDEDVKKWREERKKMWLLKISNNKQKHMQEMGIKEDELKSQPSIFKESRKEKQFIQSIQNQVQRGNPKIDLNLKLIQREFANENSQLLDFIRELGDVGLLEYELSQQEKDVLFGSSEDNNKNHYKPNYKNRKPNLSRANFTRNK	no binding	no binding	binds	no binding
Pih1 (yeast homolog of PIH1D1) (protein, UniProt P38768 1-344) MADFLLRPIKQRHRNEDKYVSVDAADGSVSKIEPIADFVIKTKLLSANGPEKLQDGRKVFINVCHSPLVPKPEVDFNARIVFPLIIQNEWEIPIITSCYRMDHDKKGQECYVWDCCINSDCSRWICDDIQLREILVEWCLESCEIRDSVVLCRDRIAFPKMKKKGAELPALEVLNDELHQDYKAKMHKIIEEEAGDPMSILRGRNDDGDDNNDPDDGTLPPLFPIENKISGAKIEEIDKNEIAHRNLKQAPAPAPAPHEQQEDVPEYEVKMKRFKGAAYKLRILIENKAPNSKPDRFSPSYNFAENILYINGKLSIPLPRDIVVNAADIKIFHIRKERTLYIYI	no binding	no binding		no binding
